Experimental data as given in article doi:10.1101/2023.06.21.546019.

Chains of the proteins cited; added tags and fusions are not shown. Residues count along the entry.
UniProt P63166, residues 1-97: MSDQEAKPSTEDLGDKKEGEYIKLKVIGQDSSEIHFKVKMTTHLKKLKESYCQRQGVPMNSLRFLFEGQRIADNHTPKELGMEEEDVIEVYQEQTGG
UniProt P52332: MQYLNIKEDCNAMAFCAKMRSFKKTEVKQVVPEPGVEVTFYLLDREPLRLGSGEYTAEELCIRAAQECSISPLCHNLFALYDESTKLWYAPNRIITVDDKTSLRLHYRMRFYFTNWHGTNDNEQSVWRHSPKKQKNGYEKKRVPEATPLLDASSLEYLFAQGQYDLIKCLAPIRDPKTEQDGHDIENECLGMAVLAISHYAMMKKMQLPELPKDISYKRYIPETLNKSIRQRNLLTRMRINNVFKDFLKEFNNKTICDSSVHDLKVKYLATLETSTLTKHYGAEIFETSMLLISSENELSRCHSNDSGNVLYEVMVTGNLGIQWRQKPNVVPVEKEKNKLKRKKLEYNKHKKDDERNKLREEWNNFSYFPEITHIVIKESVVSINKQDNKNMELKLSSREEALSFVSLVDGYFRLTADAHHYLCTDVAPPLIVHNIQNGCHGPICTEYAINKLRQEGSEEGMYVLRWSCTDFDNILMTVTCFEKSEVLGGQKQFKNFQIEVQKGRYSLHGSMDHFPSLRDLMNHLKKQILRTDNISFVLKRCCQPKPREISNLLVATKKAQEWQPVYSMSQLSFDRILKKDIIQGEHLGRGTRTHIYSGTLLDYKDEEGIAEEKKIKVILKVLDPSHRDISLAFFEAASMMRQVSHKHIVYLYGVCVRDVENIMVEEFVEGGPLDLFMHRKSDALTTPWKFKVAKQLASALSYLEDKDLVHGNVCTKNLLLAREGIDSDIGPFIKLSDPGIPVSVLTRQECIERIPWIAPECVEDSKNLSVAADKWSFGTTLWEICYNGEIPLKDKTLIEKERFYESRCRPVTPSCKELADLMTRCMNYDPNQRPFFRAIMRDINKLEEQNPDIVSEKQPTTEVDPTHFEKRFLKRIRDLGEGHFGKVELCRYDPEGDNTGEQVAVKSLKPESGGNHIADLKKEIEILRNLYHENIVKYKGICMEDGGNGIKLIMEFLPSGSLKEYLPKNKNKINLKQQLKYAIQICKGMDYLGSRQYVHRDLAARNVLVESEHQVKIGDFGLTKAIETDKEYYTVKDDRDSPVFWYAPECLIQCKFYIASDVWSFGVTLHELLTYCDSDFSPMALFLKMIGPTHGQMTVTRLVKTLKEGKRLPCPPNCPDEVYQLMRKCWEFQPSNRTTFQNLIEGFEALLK

What was measured:
[1] = molecular target: T1, SENP1 (Sentrin-specific protease 1) (mouse (endogenous in primary cardiomyocytes)) (UniProt P59110); assay: affinity purification with mass spectrometry
T1 sequence: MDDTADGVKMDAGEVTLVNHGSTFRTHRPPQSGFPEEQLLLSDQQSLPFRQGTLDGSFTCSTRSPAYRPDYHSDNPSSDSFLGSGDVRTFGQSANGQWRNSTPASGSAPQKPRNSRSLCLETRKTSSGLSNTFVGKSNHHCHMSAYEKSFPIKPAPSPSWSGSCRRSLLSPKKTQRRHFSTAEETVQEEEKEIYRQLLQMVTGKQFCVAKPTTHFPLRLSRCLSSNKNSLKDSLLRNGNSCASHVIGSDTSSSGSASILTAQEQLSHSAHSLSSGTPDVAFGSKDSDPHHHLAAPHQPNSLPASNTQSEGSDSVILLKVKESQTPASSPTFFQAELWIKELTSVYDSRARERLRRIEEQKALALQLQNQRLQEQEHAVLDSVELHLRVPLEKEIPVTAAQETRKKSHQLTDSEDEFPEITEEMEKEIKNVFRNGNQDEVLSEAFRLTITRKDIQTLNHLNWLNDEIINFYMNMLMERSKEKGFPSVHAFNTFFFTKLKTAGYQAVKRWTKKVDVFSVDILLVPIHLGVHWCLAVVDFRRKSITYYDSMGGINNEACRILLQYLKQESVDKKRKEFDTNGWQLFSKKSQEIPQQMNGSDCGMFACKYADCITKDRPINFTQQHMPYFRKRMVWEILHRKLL

[2] = molecular target: SUMO1 (mouse (endogenous in primary cardiomyocytes)) (UniProt P63166); assay: affinity purification with mass spectrometry

Row | binding [1] | binding [2] | Substance
1 | no binding | no binding | EGFR (from UniProt Q01279 25-1210) (receptor)
2 | no binding |  | JAK1 (from UniProt P52332 1-1153) (enzyme)

These are yes or no findings as the source states them, for the method shown. Binding seen in cells or lysates may run through a third protein. These calls come from enrichment with a bait or labelling near it, and not all partners need be listed. A no says only that the protein was not detected with the bait.
